Measured values: patent US12409176B2, “Methods of treating acute depression” (INTRA-CELLULAR THERAPIES, INC., priority 2018, dated 2025)
At least one structure is not confirmed: it was looked up by name or label, or the drawing left a doubt.

Tested on: AMPA receptor currents in mPFC pyramidal neurons
Experiment: AMPA currents in mPFC slices, whole-cell patch clamp (FIG. 5, 6)
Assay type: cell-based
Details: rat pre-frontal cortex; alone vs combined with fluoxetine
Source text: Combined administration of the antipsychotic, olanzapine, and the SSRI, fluoxetine, similarly induces rapid antidepressant activity in humans and animals (Tohen et al., 2010); likewise, combined application of olanzapine and fluoxetine is required to induce AMPA receptor currents in vitro.

Cc1cc2c(s1)Nc1ccccc1N=C2N1CCN(C)CC1 [olanzapine, reference compound]
AMPA-induced currents (FIG. 6): only in the presence of the SSRI, fluoxetine
